These are literature values, as cited in article PMC10090470 (Parasitology, 2023).

In general, EC50 refers to the concentration that produces a half-maximal response. As usually defined, the EC90 is the concentration at which the effect reaches the 90% level.

Read-outs that look alike come from different tables or passages of the source. Some results are limits rather than exact numbers.

Series [1] has as its system bloodstream trypomastigote forms of Trypanosoma cruzi (Y strain, DTU II). As to conditions: cited from earlier work.
Series [2] relates to intracellular forms of Trypanosoma cruzi (Tulahuen strain, DTU VI). The settings on record: read-out: Activity against intracellular forms of the parasite EC50, ± S.D., ref Simões-Silva et al. (2019); cited from earlier work.

Regarding `Cc1ccc(NC(=O)c2ccc(CN3CCN(C)CC3)cc2)cc1Nc1nccc(-c2cccnc2)n1` [IMB, Imatinib], the concentration for a half-maximal effect (EC50) is above 50 µM in series [1] (read-out: Activity against bloodstream trypomastigotes EC50, 2 h, ref Simões-Silva et al. (2019)); 47.1 ± 9.5 µM in series [1] (read-out: Activity against bloodstream trypomastigotes EC50, 24 h, ± S.D., ref Simões-Silva et al. (2019)); 24.8 ± 7.4 µM in series [2]. In addition, the EC90 in series [1] (read-out: Activity against bloodstream trypomastigotes EC90, 2 h, ref Simões-Silva et al. (2019)) is above 50 µM; in series [1] (read-out: Activity against bloodstream trypomastigotes EC90, 24 h, ± S.D., ref Simões-Silva et al. (2019)) it was above 50 µM.
